These results are taken from PMC12407064.

No constants are given. Whether binding was seen depends on the method and setting. Binding seen in cells or lysates may run through a third protein. Binding can be weak; no strength is given. Where a sequence is shown, tags or fusion partners need not be part of it.

The target in this test is T1, MycDTX3 (pRK5-3MycDTX3.WT, 1 to 347) (UniProt Q8N9I9).
T1 sequence: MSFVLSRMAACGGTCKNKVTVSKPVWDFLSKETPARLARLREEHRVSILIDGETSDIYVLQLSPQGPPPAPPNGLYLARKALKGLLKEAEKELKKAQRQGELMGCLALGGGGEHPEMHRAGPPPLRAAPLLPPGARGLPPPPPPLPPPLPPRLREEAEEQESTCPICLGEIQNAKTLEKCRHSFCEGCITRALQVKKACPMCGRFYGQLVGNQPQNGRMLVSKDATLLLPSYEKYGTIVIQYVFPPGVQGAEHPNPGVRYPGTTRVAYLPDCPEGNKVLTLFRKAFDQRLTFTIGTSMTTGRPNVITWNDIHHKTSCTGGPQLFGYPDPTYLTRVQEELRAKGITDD
Put plainly: co-IP; anti-Myc beads, 2 hours at 4°C, lysates of transfected TNKS1/2 DKO HEK293T cells in TNE buffer; immunoblot. A general note: Immunoblotting shows a protein as a band on a membrane.

Consider “FlagDi19-UIM (C-terminal Di19-UIM fragment of RNF166, pCMV3FlagDi19-UIM) (domain or fragment)”, for which the binding entry is “binds”.
